# Laboratory results from PubChem BioAssay AID2685 (National Center for Advancing Translational Sciences (NCATS), 2010).
# The other results are listed elsewhere or left out. These are further read-outs of the screen, such as a control signal, another cell line or another target. No call is given for them. Most of these compounds were active or inconclusive in the main read-out, so they are no random draw. The note in brackets gives the kind of curve behind each potency; many fits are weak.
# Assay: qHTS Assay for Lipid Storage Modulators in Drosophila S3 Cells;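 as to cell number change: cells counted by Cell Tracker Red CMTPX staining in the red channel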
# Details: BODIPY lipid droplet fluorescence, 18-24 h; for cell number change: measured here: cell count max response, cells fed with added oleic acid
# Outline: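 Laser-scanning cytometry quantifies lipid droplet accumulation (500–530 nm total intensity; droplet/cell object ratio) in oleic acid-fed (400 uM added) Drosophila S3 cells treated with a concentration series. 20 uM Triacsin C defined 100% inhibition.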
# [1] = measured here: lipid fluorescence (Fed channel) AC50, cells fed with added oleic acid
# [2] = measured here: cell number channel AC50, cells fed with added oleic acid
Compound,cell number change [%],AC50 [1],AC50 [2]
O=C(CN1CCCSc2ccccc21)N1CCN(S(=O)(=O)c2cccc(F)c2)CC1,-5.31,"146 nM [rising, full curve, poor fit]",–
Cc1ccc(S(=O)(=O)N2CCN(C(=O)COC(=O)c3ccc(C(C)(C)C)cc3)CC2)c(C)c1,28.7,–,–
S=c1[nH]nc(C(c2ccccc2)C2CCCCC2)o1 (stereo not drawn),-23.7,"820 nM [falling, full curve, poor fit]","461 nM [falling, full curve, poor fit]"
Cc1ccccc1CNC(=O)Nc1ccc(Cl)cc1,-20.4,"16400 nM [rising, single point]",–
CC(=O)C1=C(O)C(=O)N(c2ccc(Br)cn2)C1c1ccc(Br)cc1 (stereo not drawn),14,–,"4610 nM [rising, single point]"
Cn1c(-c2ccc3nc(N)sc3c2)nc2cc(N)ccc21,–,"184 nM [rising, partial curve]","184 nM [rising, partial curve]"
CCN(CC)C(=O)CSc1ncnc2c1nnn2-c1ccc(OC)cc1,-26.4,"1300 nM [falling, full curve]","1030 nM [falling, full curve, poor fit]"
COc1ccc([C@H]2CC(=O)C=C(c3ccc(OC(F)(F)F)cc3)C2)cc1,-16.7,"29100 nM [falling, partial curve, poor fit]",–
Cc1ccc2nc(SCC(=O)NC3CCCc4ccccc43)[nH]c2c1 (stereo not drawn),15.5,"6510 nM [rising, single point]",–
O=C(NCc1cccnc1)c1ccc(Br)o1,9.76,–,–
COc1cccc(-c2nc(N3CCN(C)CC3)c3ccccc3n2)c1O,-29,"3660 nM [falling, full curve]",–
C=CCNC(=S)NNC(=O)c1ccc2c(c1)OCO2,13.5,–,"517 nM [rising, single point]"
O=C1CC(c2ccc(F)cc2)Cc2nc(N3CCOCC3)ncc21 (stereo not drawn),-10.3,–,–
O=C(NC1CCCc2ccccc21)c1ccccc1Br (stereo not drawn),49.9,"29100 nM [rising, single point]",–
O=C(O)c1c2c(nc3ccc(S(=O)(=O)N4CCC(C(=O)NCc5ccc(Cl)cc5)CC4)cc13)CCCC2,14.6,"5.8 nM [rising, full curve]",–
CCOC(=O)CN1CC23C=CC(O2)C(C(=O)NC2CCCCC2)C3C1=O (stereo not drawn),11.7,"920 nM [falling, full curve, poor fit]",–
CCOc1ccc(CCNC(=O)COC(=O)c2cccc(N(C)C)c2)cc1OCC,-59.6,"1640 nM [falling, partial curve]","46.1 nM [falling, full curve]"
Cn1nnnc1SCC(=O)N1c2ccccc2CCc2ccccc21,-27,"1840 nM [falling, partial curve, poor fit]",–
Cc1nc2c(-c3ccccc3)cnn2c(N)c1-c1ccccc1,–,"5170 nM [falling, single point]",–
CSCCC(NS(=O)(=O)c1ccc(Cl)c(Cl)c1)C(=O)O (stereo not drawn),–,–,"5.17 nM [rising, full curve, poor fit]"

Compound,cell number change [%],AC50 [1],AC50 [2]
Cc1ccccc1Cn1ccc(NC(=O)c2nn3cccnc3c2Cl)n1,16.4,"4610 nM [rising, full curve, poor fit]",–
CCCn1c(SCC(=O)Nc2nnc(C(C)C)s2)nc2c1c(=O)n(C)c(=O)n2C,-0.835,"3660 nM [falling, full curve]",–
CCc1nc(SCC(=O)O)c(C#N)c2c1CCCC2,30.5,"651 nM [rising, full curve, poor fit]",–
CCc1c(C)c(C#N)c2nc3ccccc3n2c1-n1nc(C)cc1C,-9.15,"517 nM [falling, full curve]",–
CC1CN(C(=O)N2c3ccccc3Sc3ccccc32)CC(C)O1 (stereo not drawn),0.658,–,–
CC1CCCN(C(=O)c2ccc(-c3ccccc3Cl)o2)C1 (stereo not drawn),-22.7,"29100 nM [falling, single point]",–
O=C(COc1cccc(NC(=O)c2cccc([N+](=O)[O-])c2)c1)c1ccc(Br)cc1,26.4,–,"164 nM [rising, full curve, poor fit]"
COC(=O)[C@H](Cc1ccccc1)NC(=O)Nc1ccc(OC)cc1,-7.78,"6510 nM [rising, single point]",–
CC1CC1C(=O)OCC(=O)N(C)c1c(N)n(Cc2ccccc2)c(=O)[nH]c1=O (stereo not drawn),–,–,"3660 nM [rising, partial curve, poor fit]"
COc1ccccc1CCCNC(=O)C1CCC(=O)N(CCN2CCOCC2)C1 (stereo not drawn),12.9,"29100 nM [rising, single point]",–
CCCCN(CC)C(=O)c1ccc(-c2ccccc2)cc1,21.5,"5170 nM [rising, full curve]",–
CCCCOC(=O)Nc1cc(C(=O)OC)ccc1C(=O)OC,–,"29100 nM [rising, partial curve]","116 nM [rising, full curve, poor fit]"
Cc1nn2c(-c3ccncc3)ccnc2c1Cl,41.5,–,–
N#Cc1cc2cc3c(cc2nc1SCC(=O)OC1CCCCC1)OCO3,4.48,"23100 nM [rising, single point]",–
O=C(O)CCSc1nnc(SCC(=O)NCC(F)(F)F)s1,-7.71,–,–
COc1ccc(NC(=O)C=C(C)C)cc1Cl,2.05,"13000 nM [rising, partial curve]",–
CC(C)(C)c1cc(/C=N/NC(=O)C[n+]2ccccc2)cc(C(C)(C)C)c1O,–,"651 nM [falling, partial curve]","3260 nM [falling, single point]"
O=C(Nc1ccc(-n2cccc2)cc1)C1CC1,20.7,–,–
Cc1ccc(-c2cnc(N)n2C)cc1C,–,–,"580 nM [rising, single point]"
NNC(=O)c1ccc(N2CCc3ccccc32)c([N+](=O)[O-])c1,-31,"16400 nM [falling, single point]","23100 nM [falling, single point]"

# Shown with bars between the fields: part of the list above
Compound | cell number change [%] | AC50 [1] | AC50 [2]
CCc1nc(SCC(=O)O)c(C#N)c2c1CCCC2 | 30.5 | 651 nM [rising, full curve, poor fit] | –
CCc1c(C)c(C#N)c2nc3ccccc3n2c1-n1nc(C)cc1C | -9.15 | 517 nM [falling, full curve] | –
